At least one compound was matched to its structure with a doubt left.
Tested on: Tg2576 AD mice
Test: Hippocampal hyperphosphorylated PHF tau by direct binding assay with [125I]-labeled AT8 antibody, Tg2576 mice subjected to CUMS
Assay type: in vivo, mouse
Conditions: 15-month-old Tg2576 mice, 3 months of CUMS with treatment, vs untreated stressed controls
Source text: For a genetic model of familial AD (FAD), Tg2576 mice (Taconic Biosciences, Rensselaer, N.Y., USA) were used with neuron-specific overexpression of human APPSwe, i.e the Swedish mutation of APP695 isolated from a Swedish family with FAD featuring the double mutation K670N/M671L (Hsiao et al., Science 274, 99-103 (1996)). As a genetic model of tauopathy, the Tg-TauP301L mice (Model 2508, Taconic Biosciences, Rensselaer, N.Y., USA) with neuron-specific expression of the most common FTDP-17 (frontotemporal dementia and parkinsonism linked to chromosome 17) mutation (Lewis et al., Nature Genetics 25, 402-405 (2000)) were used. […]
Neuronal cell loss and hyperphosphorylated PHF Tau were determined in hippocampi of 15 months-old Tg2576 mice, which were treated without or with Compound-1 and Compound-4 for three months during the neurodegeneration-enhancing CUMS (chronic unpredictable mild stress) protocol. Neuronal cell loss was determined with crude homogenates of dissected hippocampi by direct binding assay with the neuron-specific [125]-labeled anti-NeuN antibody (MAB377, clone A60, EMD Millipore, Merck KGaA, Darmstadt, Germany). Similarly, the neuronal cell loss-causing PHF tau hyperphosphorylation was quantified with [125]-labeled AT8 antibody. […]

c1cc(-c2ccc3c(c2)OCO3)ncn1 [Compound-4, 4-(1,3-benzodioxol-5-yl)pyrimidine]
hippocampal content of hyperphosphorylated PHF Tau (AT8 binding): significantly decreased hippocampal content of hyperphosphorylated PHF Tau

— patent US20210015793A1, “COMPOUNDS FOR TREATING CNS- AND NEURODEGENERATIVE DISEASES” (ETH ZURICH, priority 2018, published 2021)
